# Test results reported in patent publication US20080275027A1, “Piperazinone Derivatives Useful as Histamine H3 Receptor Antagonists and/or Inverse Agonists” (priority 2005, published 2008).
# Protein sequences, listed by entry. Tags and fused reporters are not part of them. Lines headed by an entry give the natural chain unless they say otherwise; changes in a name come on top.
# UniProt P35367, whole entry: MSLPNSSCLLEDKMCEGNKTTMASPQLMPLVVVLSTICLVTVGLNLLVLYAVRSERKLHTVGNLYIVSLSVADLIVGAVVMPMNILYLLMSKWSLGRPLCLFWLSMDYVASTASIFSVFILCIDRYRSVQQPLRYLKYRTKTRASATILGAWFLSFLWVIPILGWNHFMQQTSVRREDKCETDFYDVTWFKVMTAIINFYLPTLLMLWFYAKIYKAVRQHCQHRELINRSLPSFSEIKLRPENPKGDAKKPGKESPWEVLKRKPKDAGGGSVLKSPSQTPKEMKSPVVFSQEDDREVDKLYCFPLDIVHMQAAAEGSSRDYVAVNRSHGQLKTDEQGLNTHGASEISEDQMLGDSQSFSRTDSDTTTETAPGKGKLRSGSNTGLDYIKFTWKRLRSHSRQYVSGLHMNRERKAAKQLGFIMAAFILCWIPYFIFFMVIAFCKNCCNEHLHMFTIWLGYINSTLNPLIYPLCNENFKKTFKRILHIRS
# UniProt Q9Y5N1: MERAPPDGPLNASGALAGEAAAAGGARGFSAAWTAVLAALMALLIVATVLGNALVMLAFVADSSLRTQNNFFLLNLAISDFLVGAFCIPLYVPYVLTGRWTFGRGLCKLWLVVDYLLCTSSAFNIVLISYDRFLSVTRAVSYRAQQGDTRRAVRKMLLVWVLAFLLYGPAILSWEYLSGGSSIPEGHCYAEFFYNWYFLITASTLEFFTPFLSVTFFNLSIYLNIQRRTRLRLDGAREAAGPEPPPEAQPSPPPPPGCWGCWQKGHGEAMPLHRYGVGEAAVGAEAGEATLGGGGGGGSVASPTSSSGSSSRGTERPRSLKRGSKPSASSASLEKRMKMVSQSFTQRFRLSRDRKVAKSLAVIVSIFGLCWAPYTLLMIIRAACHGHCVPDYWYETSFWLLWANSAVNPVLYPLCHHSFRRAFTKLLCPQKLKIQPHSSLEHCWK
# Some entries share one result that the patent states for a list of compounds.
# Assays:
# human H1 receptor = target: T1, human H1 receptor (Homo sapiens, UniProt P35367); assay: Histamine H1 functional antagonist assay (FLIPR, CHO cells); type: cell-based; conditions: functional antagonism vs histamine at EC80; calcium fluorescence (FLIPR)
# T1 construct: expressed in transfected cells
# histamine H3 receptor = histamine H3 receptor (Homo sapiens, UniProt Q9Y5N1); assay: Histamine H3 functional antagonist assay ([35S]-GTPγS SPA, CHO K1 cell membranes); conditions: functional antagonism vs histamine at EC80; GTPγS binding
Structure (SMILES),average pKi (pKb) at H1 (human H1 receptor),average pKi (pKb) at H3 (histamine H3 receptor)
O=C(c1cccc2ccccc12)N1CCN(c2ccc(OCCCN3CCCCC3)cc2)C(=O)C1 [Example E37],less than 6.0,greater than 8.0
O=C(c1ccc(Cl)c(Cl)c1)N1CCN(c2ccc(OCCCN3CCCCC3)cc2)C(=O)C1 [Example E170],less than 6.0,greater than 8.0
O=C(C1CCCC1)N1CCN(c2ccc(OCCCN3CCCCC3)cc2)C(=O)C1 [Example E14],less than 6.0,greater than 8.0
O=C(c1cccc2ccc(=O)[nH]c12)N1CCN(c2ccc(OC3CCN(C4CCCC4)CC3)cc2)C(=O)C1 [Example E142],less than 6.0,greater than 8.0
CS(=O)(=O)c1cccc(C(=O)N2CCN(c3ccc(OCCCN4CCCCCC4)cc3)C(=O)C2)c1 [Example E99],less than 6.0,greater than 8.0
O=C(C1CCCC1)N1CCN(c2ccc(OC3CCN(C4CCC4)CC3)cc2)C(=O)C1 [Example E3],less than 6.0,greater than 8.0
O=C(c1cnn2cccnc12)N1CCN(c2ccc(OCCCN3CCCCCC3)cc2)C(=O)C1 [Example E115],less than 6.0,greater than 8.0
COc1ccc(C(=O)N2CCN(c3ccc(OC4CCN(C(C)C)CC4)cc3)C(=O)C2)cc1Cl [Example E21],less than 6.0,greater than 8.0
O=C(C1CCC1)N1CCN(c2ccc(OCCCN3CCCCC3)cc2)C(=O)C1 [Example E15],less than 6.0,greater than 8.0
CC1CCCN1CCCOc1ccc(N2CCN(C(=O)c3ccc4c(c3)nnn4C)CC2=O)cc1 (stereo not drawn) [Example E119],less than 6.0,greater than 8.0
O=C(c1ccc(F)c2ncccc12)N1CCN(c2ccc(OCCCN3CCCCC3)cc2)C(=O)C1 [Example E52],less than 6.0,greater than 8.0
CC(C)N1CCC(Oc2ccc(N3CCN(C(=O)C4CCC4)CC3=O)cc2)CC1 [Example E23],less than 6.0,greater than 8.0
O=C(c1ccc(C(=O)N2CCN(c3ccc(OC4CCN(C5CCCC5)CC4)cc3)C(=O)C2)cc1)N1CCC1 [Example E96],less than 6.0,greater than 8.0
O=C(c1ccc(C(=O)N2CCN(c3ccc(OC4CCN(C5CCC5)CC4)cc3)C(=O)C2)cc1)N1CCCC1 [Example E91],less than 6.0,greater than 8.0
Cc1cc(C(=O)N2CCN(c3ccc(OC4CCN(C5CCC5)CC4)cc3)C(=O)C2)n(C)n1 [Example E163],less than 6.0,greater than 8.0
CC(C)N1CCC(Oc2ccc(N3CCN(C(=O)CC(C)(C)C)CC3=O)cc2)CC1 [Example E28],less than 6.0,greater than 8.0
O=C(c1ccc(-c2cnco2)cc1)N1CCN(c2ccc(OCCCN3CCCCC3)cc2)C(=O)C1 [Example E54],less than 6.0,greater than 8.0
CC(C)N1CCC(Oc2ccc(N3CCN(C(=O)c4cccc5ccc(=O)[nH]c45)CC3=O)cc2)CC1 [Example E141],less than 6.0,greater than 8.0
O=C(c1cnn2cccnc12)N1CCN(c2ccc(OC3CCN(C4CCCC4)CC3)cc2)C(=O)C1 [Example E145],less than 6.0,greater than 8.0
O=C(c1ccc(-c2cnco2)cc1)N1CCN(c2ccc(OCCCN3CCCC3)cc2)C(=O)C1 [Example E66],less than 6.0,greater than 8.0
CN1CC(C(=O)N2CCN(c3ccc(OC4CCN(C5CCC5)CC4)cc3)C(=O)C2)CC1=O (stereo not drawn) [Example E158],less than 6.0,greater than 8.0
O=C(c1cccc2ncccc12)N1CCN(c2ccc(OCCCN3CCCCC3)cc2)C(=O)C1 [Example E137],less than 6.0,greater than 8.0
O=C(c1cccc(C(=O)N2CCN(c3ccc(OCCCN4CCCC4)cc3)C(=O)C2)c1)N1CCCC1 [Example E148],less than 6.0,greater than 8.0
O=C(c1ccc(C(=O)N2CCN(c3ccc(OCCCN4CCCCC4)cc3)C(=O)C2)cc1)N1CCOCC1 [Example E134],less than 6.0,greater than 8.0
Cc1ccc(C(=O)N2CCN(c3ccc(OC4CCN(C(C)C)CC4)cc3)C(=O)C2)cc1 [Example E22],less than 6.0,greater than 8.0
CC(C)N1CCC(Oc2ccc(N3CCN(C(=O)c4ccc(C(=O)N5CCC5)cc4)CC3=O)cc2)CC1 [Example E87],less than 6.0,greater than 8.0
CC1CCCN1CCCOc1ccc(N2CCN(C(=O)c3cccc4ccc(=O)[nH]c34)CC2=O)cc1 (stereo not drawn) [Example E118],less than 6.0,greater than 8.0
